{"source": "PubChem BioAssay AID1159578, Peter MacCallum Cancer Centre – 2015", "test": "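Knock-downs that alter how fast lymphatic endothelial cells migrate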 (primary screen)", "system": "human lymphatic endothelial cells", "reagent": "siRNA pool against human genes, 40 nM", "duration": "48 h after transfection", "measurement": "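High-content imaging of dye-stained cells in a scratch assay measures filled wound area and nuclei per well; duplicate means given as ratio to mock and robust z-score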", "reading the numbers": "migration robust z-score: higher = faster migration into the scratch; nuclei per well: higher = more cells in the well", "active means": "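Pools averaging fewer than 3300 nuclei are never called; remaining pools count as changed when migration robust z lies outside -2 to 2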", "calls": "active = migration changed; inactive = no migration change, or too few cells", "note": "The deposit covers about 18,000 reagents; below is an unselected part. Over the whole deposit, about 1,030 (5.7%) were called active. 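Inactive calls also include pools with fewer than 3300 nuclei, whose migration was not assessed.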 Raw values are not corrected between plates. A number with no mark means an inactive call. Not all columns of the deposit are shown."}
{"target": "SPOPL", "migration robust z-score": 0.54, "nuclei per well, duplicate mean": 5590}
{"target": "MOCS3", "migration robust z-score": 0.26, "nuclei per well, duplicate mean": 4582}
{"target": "OCLM (retired record)", "migration robust z-score": 1.77, "nuclei per well, duplicate mean": 7273}
{"target": "PSPC1", "migration robust z-score": -0.58, "nuclei per well, duplicate mean": 5800}
{"target": "H2AC6", "migration robust z-score": 1.21, "nuclei per well, duplicate mean": 5062}
{"target": "EID1", "migration robust z-score": -1.72, "nuclei per well, duplicate mean": 5452}
{"target": "TRHR", "migration robust z-score": -2, "nuclei per well, duplicate mean": 4712}
{"target": "MARCHF5", "migration robust z-score": -0.18, "nuclei per well, duplicate mean": 5157}
{"target": "ASNSD1", "migration robust z-score": -0.78, "nuclei per well, duplicate mean": 5754}
{"target": "PPP1R14C", "migration robust z-score": 0.64, "nuclei per well, duplicate mean": 5801}
{"target": "GLYCTK", "migration robust z-score": 0.05, "nuclei per well, duplicate mean": 5226}
{"target": "SLC16A7", "migration robust z-score": -1.4, "nuclei per well, duplicate mean": 4950}

Ordered by “nuclei per well, duplicate mean” (highest first): 2 of the entries above
{"target": "PPP1R14C", "migration robust z-score": 0.64, "nuclei per well, duplicate mean": 5801}
{"target": "GLYCTK", "migration robust z-score": 0.05, "nuclei per well, duplicate mean": 5226}
